Reference: patent US9853225B2, “Chalcogen-containing organic compound and a use thereof” (JNC CORPORATION, priority 2013, dated 2017)

Assays:
[1] = Bottom gate-top contact organic FET, film formed by vapor deposition method: carrier mobility and ON/OFF ratio; details: thickness 75 nm
Protocol: Device preparation by the application method was not possible with regard to the chalcogen-containing organic compound in Comparative Example 1. Therefore, a device was prepared by the vapor deposition method for the chalcogen-containing organic compounds in Examples 1, 3, 4, 7 and Comparative Example 1, and FET characteristics were compared.
Ultrasonic cleaning was performed to a silicon substrate with the thermally oxidized silicon insulating film (film thickness: 500 nm) described above for 5 minutes using acetone and 2-propanol for each, and subsequently UV ozone treatment was performed for 30 minutes. On a surface of the substrate subjected to cleaning treatment, a self-assembled monolayer of DTS was formed according to a vapor method, and then a chalcogen-containing organic compound was vapor-deposited at a vapor deposition rate of 0.4 to 0.6 Å/s to form an organic semiconductor layer having a film thickness of 75 nm. Subsequently, a carrier injection layer (film thickness: 1 nm) of tetrafluorotetracyanoquinodimethane was formed through a stainless-steel metallic mask, and subsequently a gold source electrode and a gold drain electrode (film thickness: 30 nm) were vapor-deposited in vacuo to form a channel length of 100 μm and a channel width of 1 mm and to prepare a bottom gate-top contact type organic FET.
Carrier mobility and an ON/OFF ratio were measured on the thus prepared device using Semiconductor Parameter Analyzer (model number “Keithley 4200”, made by Keithley Instruments Inc.).

[2] = Bottom gate-top contact organic FET, film formed by edge-cast method: carrier mobility and ON/OFF ratio; details: 0.2 mass % solution, DTS-treated Si/SiO2 substrate
Protocol: In accordance with an application method (edge-cast method; Appl. Phys. Exp. 2, 111501 (2009)) developed by the present inventors, film formation and preparation of a bottom gate-top contact type organic FET were performed.
Surface treatment was performed to a silicon substrate (made by Fujimi Fine Technology Inc.) by decyltriethoxysilane (DTS) to obtain a silicon substrate (hereinafter, also referred to as “substrate”) with a thermally oxidized silicon insulating film (film thickness: 500 nm). On the substrate, a solution-holding silicon substrate fragment (hereinafter, also referred to as “solution holding structure”) was placed. While inclining the substrate, an 1,2-dimethoxybenzene solution of a chalcogen-containing organic compound synthesized in Examples or a 1,2-dichloroethane solution thereof (concentration of chalcogen-containing organic compound: 0.2 mass %) (organic semiconductor solution) was dripped at 120° C. onto an edge of the solution holding structure. While a crystal grew with evaporation of the solvent, the crystal stuck to the substrate, and crystal growth was completed in several minutes. In this state, the grown crystal was allowed to stand overnight (11 hours) under argon atmosphere at 60 to 100° C. to completely dry a crystal film (film thickness: 30 to 150 nm). On the crystal film obtained, a carrier injection layer (film thickness: 1 nm) of tetrafluorotetracyanoquinodimethane was formed through a stainless-steel metallic mask, and subsequently a gold source electrode and a gold drain electrode (film thickness: 30 nm) were vapor-deposited in vacuo to form a channel length of 100 μm and a channel width of 1 mm and to prepare a bottom gate-top contact type organic FET. Carrier mobility and an ON/OFF ratio were measured on the thus prepared device using Semiconductor Parameter Analyzer (model number “Keithley 4200”, made by Keithley Instruments Inc.).
Preparation of the organic transistor device and evaluation of characteristics thereof as described above were performed on the compounds obtained in Examples 2, 3 to 5. In addition, in the compound of Comparative Example 1, preparation of a two-dimensional crystal film with high quality was not allowed according to the solution process, and film formation by the above application method was difficult. As a result, with regard to the compound in Comparative Example 1, preparation of the organic transistor device by the above application method and evaluation of the characteristics thereof were not possible.

| SMILES | Carrier mobility [1] | ON-OFF ratio [1] | Carrier mobility [2] | ON-OFF ratio [2] |
| --- | --- | --- | --- | --- |
| c1ccc2cc3c(cc2c1)sc1cc2c(cc13)sc1cc3ccccc3cc12 [Comparative Example 1, dinaphtho[2,3-d:2′,3′-d′]benzo[1,2-b:4,5-b′]dithiophene, reference compound] | 0.08 cm^2/V·s | 10^4 |  |  |
| CCCCCCc1ccc2cc3c(cc2c1)sc1cc2c(cc13)sc1cc3cc(CCCCCC)ccc3cc12 [Example 5, 3,11-dihexyldinaphtho[2,3-d:2′,3′-d′]benzo[1,2-b:4,5-b′]dithiophene] |  |  | 1.3 cm^2/V·s | 10^6 |
| CCCCCCCCCCc1ccc2cc3c(cc2c1)sc1cc2cc4c(cc2cc13)sc1cc2cc(CCCCCCCCCC)ccc2cc14 [Example 7] | 0.90 cm^2/V·s | 10^5 |  |  |
| CCCCCCCCCCc1ccc2cc3oc4cc5c(cc4c3cc2c1)oc1cc2ccc(CCCCCCCCCC)cc2cc15 [Example 1, 2,10-didecyldinaphtho[2,3-d:2′,3′-d′]benzo[1,2-b:4,5-b′]difuran] | 0.78 cm^2/V·s | 10^5 |  |  |
| CCCCCCCCCCc1ccc2cc3c(cc2c1)sc1cc2c(cc13)sc1cc3cc(CCCCCCCCCC)ccc3cc12 [Example 4, 3,11-didecyldinaphtho[2,3-d:2′,3′-d′]benzo[1,2-b:4,5-b′]dithiophene] | 1.4 cm^2/V·s | 10^4 | 16 cm^2/V·s | 10^7 |
| CCCCCCCCCCc1ccc2cc3c(cc2c1)oc1cc2c(cc13)oc1cc3cc(CCCCCCCCCC)ccc3cc12 [Example 3, 3,11-didecyldinaphtho[2,3-d:2′,3′-d′]benzo[1,2-b:4,5-b′]difuran] | 0.24 cm^2/V·s | 10^5 10^5 | 0.50 cm^2/V·s | 10^5 10^5 |
| CCCCCCCCCCc1ccc2cc3sc4cc5c(cc4c3cc2c1)sc1cc2ccc(CCCCCCCCCC)cc2cc15 [Example 2, 2,10-didecyldinaphtho[2,3-d:2′,3′-d′]benzo[1,2-b:4,5-b′]dithiophene] |  |  | 0.015 cm^2/V·s | 10^5 |
